# According to PubChem BioAssay AID743255 (National Center for Advancing Translational Sciences (NCATS), 2014):
# Amino acid sequences for entries named in this document (tags omitted). A change or cut given only in a name is not applied to a line headed by its entry.
# UniProt O94782: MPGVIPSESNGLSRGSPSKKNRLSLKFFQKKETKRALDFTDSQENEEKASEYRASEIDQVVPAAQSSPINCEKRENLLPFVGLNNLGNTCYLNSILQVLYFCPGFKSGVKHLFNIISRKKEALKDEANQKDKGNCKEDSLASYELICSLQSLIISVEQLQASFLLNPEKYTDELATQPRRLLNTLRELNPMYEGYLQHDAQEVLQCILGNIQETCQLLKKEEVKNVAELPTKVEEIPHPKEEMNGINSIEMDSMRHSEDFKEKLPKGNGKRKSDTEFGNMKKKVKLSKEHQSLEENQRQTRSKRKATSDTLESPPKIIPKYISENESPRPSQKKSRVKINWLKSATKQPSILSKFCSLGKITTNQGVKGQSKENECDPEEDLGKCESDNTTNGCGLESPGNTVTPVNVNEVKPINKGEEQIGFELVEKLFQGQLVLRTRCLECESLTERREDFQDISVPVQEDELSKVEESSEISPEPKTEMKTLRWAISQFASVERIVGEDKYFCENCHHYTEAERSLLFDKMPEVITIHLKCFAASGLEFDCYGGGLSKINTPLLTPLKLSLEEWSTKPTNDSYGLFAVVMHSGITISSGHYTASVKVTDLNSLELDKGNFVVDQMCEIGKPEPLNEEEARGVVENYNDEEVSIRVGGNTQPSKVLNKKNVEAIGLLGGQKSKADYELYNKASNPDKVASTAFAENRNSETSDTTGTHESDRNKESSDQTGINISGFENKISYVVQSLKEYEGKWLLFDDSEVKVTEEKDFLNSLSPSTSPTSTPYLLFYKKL
# Values joined by “and” are separate entries in the source; they are usually repeats but may differ in a detail not shown here. Identical values can stand only once. Out of some 390,000 compounds screened, about 910 (0.23%) were called active. This list was built around the results that the source calls inconclusive (neither active nor inactive); the mix of calls is not that of the screen. Calls follow the shape of the dose curve; as a rule, active = well fitted inhibition curve with a large enough effect; inconclusive = small, poorly fitted or top-dose-only effect; inactive = no such curve, though single readings can be large or run the other way. Where the call is inconclusive, the potency comes from a doubtful curve fit.
# Biological target: Ubiquitin carboxyl-terminal hydrolase 1 (Homo sapiens) (UniProt O94782)
# Assay: Inhibitors of USP1/UAF1: Primary Screen; also: nearly all actives have a fitted effect of over 60% in size
# Conditions: recombinant USP1/UAF1, Ub-Rhodamine cleavage fluorescence; series mostly up to 57.1 µM
# Outline: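 Step one: compound is pinned into 1nM USP1/UAF1 in HEPES pH 7.8 buffer with TCEP. Step two: 15 min room-temperature incubation. Step three: Ub-Rho (150nM final) starts cleavage, tracked by fluorescence over six one-minute reads.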
# Potency is read from the fitted curve at half-maximal effect.
row,Structure (SMILES),Potency
1,CC(=O)NN1C(=O)/C(=C/c2ccc(Br)o2)SC1=S,inactive
2,COc1ccc(CCn2c(-c3cccc([N+](=O)[O-])c3)nc3nc4ccccc4nc32)cc1,"inconclusive: 39.8 µM [inhibitor, partial curve]"
3,CCCc1ccc(OC(=O)c2sc3ncn(Cc4cccc(F)c4)c(=O)c3c2C)cc1,"inconclusive: 1.41 µM [inhibitor, full curve, poor fit]"
4,O=C(NCCN1CCN(Cc2ccccc2)CC1)C1c2ccccc2C(=O)N2CCc3ccccc3C12 (stereo not drawn),inactive
5,CCOC(=O)C1CCN(C(=O)CN2C(=O)C(CC)Oc3ccccc32)CC1 (stereo not drawn),"inconclusive: 15.8 µM [inhibitor, partial curve]"
6,COC(=O)c1ccc(NC(=O)C(c2ccccc2)N2Cc3ccccc3C2=O)cc1 (stereo not drawn),inactive
7,O=c1oc2ccccc2c(O)c1Cc1cc(Cl)c2cccnc2c1O,inactive
8,CN(C)S(=O)(=O)c1cccc(NC(=O)CN2C(=O)NC3(CCc4ccccc4C3)C2=O)c1 (stereo not drawn),inactive
9,O=S1(=O)CCC(NC(=S)SCCOc2ccccc2)C1 (stereo not drawn),inactive
10,Cc1ccc(OCc2cc(C(=O)N3CCCC(C)C3)no2)cn1 (stereo not drawn),"inconclusive: 0.224 µM [inhibitor, full curve, poor fit]"
11,O=C1/C(=C\c2ccc(O)cc2)SC(=S)N1Cc1ccccc1,"inconclusive: 28.2 µM [inhibitor, partial curve]"
12,CCC(Sc1nc2n[nH]c(C)c2c(=N)n1-c1ccc(Br)cc1)C(=O)N(CC)CC (stereo not drawn),"inconclusive: 12.6 µM [inhibitor, partial curve]"
13,CCCCN(CCCC)S(=O)(=O)c1ccc(NC(=O)c2ccc([N+](=O)[O-])cc2Cl)cc1,inactive
14,CCOC(=O)C1=C(C)N(Cc2ccccc2)C(=O)NC1c1ccccc1OS(=O)(=O)c1ccccc1[N+](=O)[O-] (stereo not drawn),inactive
15,O=C(CSc1nccn1Cc1ccc(F)cc1)Nc1nc2ccccc2s1,inactive
16,COC(=O)C1CCN(S(=O)(=O)c2c(C)n(C)c(=O)n(C)c2=O)CC1,"inconclusive: 8.91 µM [inhibitor, partial curve]"
17,CCN(CC)c1cc(C)c2cc(NC(=O)/C=C/c3cc(OC)c(OC)c(OC)c3)ccc2n1,"inconclusive: 11.2 µM [inhibitor, partial curve]"
18,Cc1ccc(C(=O)Nc2nc(-c3ccccn3)cs2)cc1S(=O)(=O)N1CCOCC1,"inconclusive: 12.6 µM [inhibitor, partial curve]"
19,CC1CN(C(=O)COC(=O)c2ccc(Cl)c(N)c2)CC(C)O1 (stereo not drawn),"inconclusive: 70.8 µM [inhibitor, partial curve, poor fit]"
20,Cc1ccc(-n2ncc3c(Nc4cccc(Cl)c4)ncnc32)c(C)c1,inactive
21,COc1cc(OC)c(NC(=O)CCCNC(=O)Cn2cnc3sc(C)c(C)c3c2=O)cc1Cl,"inconclusive: 17.8 µM [inhibitor, partial curve, poor fit]"

row,Structure (SMILES),Potency
1,O=C(NC(=S)Nc1cccc2cc(O)ccc12)c1ccco1,"inconclusive: 8.91 µM [inhibitor, full curve]"
2,CCOC(=O)c1c(C)n(-c2ccc(OC)cc2)c2ccc(OC(=O)COc3ccccc3)cc12,"inconclusive: 8.91 µM [inhibitor, partial curve, poor fit]"
3,O=C(/C=C/c1cccc(F)c1)Nc1ccc(S(=O)(=O)N2CCOCC2)cc1,"inconclusive: 6.31 µM [inhibitor, full curve, poor fit]"
4,O=C(N/C(=C\c1ccc(Br)cc1)C(=O)N1CCCC1)c1ccccc1F,"inconclusive: 2.24 µM [inhibitor, full curve]"
5,O=S(=O)(c1ccc(F)cc1)N1CCN(Cc2cc3c(cc2Br)OCCO3)CC1,"inconclusive: 50.1 µM [inhibitor, partial curve, poor fit]"
6,CCC(C)[C@H]1CNC(=O)C(=O)N1CCCc1cc(OC)c(OC)c(OC)c1 (stereo partly drawn),"inconclusive: 44.7 µM [inhibitor, partial curve, poor fit]"
7,Cc1coc2c(C)c3oc(=O)c(CCC(=O)NCCc4ccccc4F)c(C)c3cc12,inactive
8,COc1ccc(-n2nc(C(=O)N3CCCCC3C)c3c4ccccc4n(C)c3c2=O)cc1Cl (stereo not drawn),"inconclusive: 44.7 µM [inhibitor, single point]"
9,COc1ccc(S(=O)(=O)N2c3ccccc3OCC2CC(=O)O)cc1 (stereo not drawn),inactive
10,CCOC(=O)c1cc2c(=Cc3ccc(N(C)C)cc3)c3ccccc3n2[n+]1C,active: 15.8 µM
11,CCN(CC(=O)Nc1ccc2c(c1)OCCO2)CC(=O)Nc1ccc2c(c1)OCO2,"inconclusive: 11.2 µM [inhibitor, partial curve, poor fit]"
12,Cc1cccc(CC(=O)N2CC(=O)Nc3ccc(Br)cc3C2c2ccc(F)cc2)c1 (stereo not drawn),"inconclusive: 11.2 µM [inhibitor, partial curve, poor fit]"
13,COc1ccc(C(C)NCCC(c2ccc(OC(C)C)cc2)c2ccccc2OC)cc1 (stereo not drawn),inactive
14,CCC(=O)N1CCCc2cc(S(=O)(=O)N3CCC(C(=O)NCc4ccc(F)cc4)CC3)ccc21,"inconclusive: 6.31 µM [inhibitor, partial curve]"
15,O=S(=O)(Nc1ccc(NS(=O)(=O)c2ccccc2)c2ccccc12)c1ccccc1,inactive
16,CCOc1ccc(NC(=O)Cn2cnc3sc(C)c(S(=O)(=O)N4CCN(c5ccccc5OC)CC4)c3c2=O)cc1,"inconclusive: 126 µM [inhibitor, partial curve, poor fit]"
17,Cc1nn2c(C)c(C(=O)NC(C)c3ccccc3)cnc2c1-c1ccc(F)cc1 (stereo not drawn),"inconclusive: 158 µM [inhibitor, partial curve, poor fit]"
18,CCOc1ccc(CNC(=O)C2CCCN(c3nnc(C)c4c(C)n(-c5ccccc5)nc34)C2)cc1 (stereo not drawn),"inconclusive: 22.4 µM [inhibitor, partial curve, poor fit] and inconclusive: 44.7 µM [inhibitor, partial curve]"
19,Cc1nn(C(C)(C)C)c(OC(=O)CC(C)C)c1S(=O)(=O)c1ccccc1,"inconclusive: 14.1 µM [inhibitor, partial curve]"
20,CCc1ccc(-n2nc(C)c3c(C(=O)N4CCN(c5ccccc5)CC4)cc(C)nc32)cc1,inactive
21,CC(/C=N/n1c(C2CCCCC2)n[nH]c1=S)=C\c1ccccc1,"inconclusive: 44.7 µM [inhibitor, partial curve]"

row,Structure (SMILES),Potency
1,CNc1ccc(Br)cc(C(=O)/C=C/c2cccc(OC)c2)c1=O,"inconclusive: 31.6 µM [inhibitor, partial curve]"
2,Nc1ccc2c(c1)Cc1cc(N)c(Cl)cc1-2,inactive
3,Cc1nn(C)c(C)c1/C=C/C(=O)c1ccc(Cl)cc1Cl,"inconclusive: 5.01 µM [inhibitor, partial curve, poor fit]"
4,COc1ccccc1C(=O)NC1(C(F)(F)F)C(=O)Nc2c1c(=O)[nH]c(=O)n2-c1ccc(F)cc1 (stereo not drawn),inactive
5,C[C@@H]1CN([C@H](C)CO)S(=O)(=O)c2ccc(-c3cccc(C#N)c3)cc2O[C@H]1CN(C)C(=O)Nc1cc(F)ccc1F,"inconclusive: 44.7 µM [inhibitor, partial curve, poor fit]"
6,O=C(Oc1ccc(Br)cc1C(=S)N1CCCCC1)c1cc([N+](=O)[O-])cc([N+](=O)[O-])c1,inactive
7,Cc1ccc(S(=O)(=O)N/N=C/c2ccc(O)cc2O)cc1[N+](=O)[O-],inactive
8,O=C(CN(Cc1ccccc1)S(=O)(=O)c1ccc(F)cc1)NCCC1=CCCCC1,"inconclusive: 12.6 µM [inhibitor, partial curve]"
9,COc1cc(/C=N/NC(=O)c2ccncc2)c([N+](=O)[O-])cc1OC,inactive
10,Nc1c(C(=O)CSc2nnnn2-c2ccccc2)c(=O)[nH]c(=O)n1C1CC1,"inconclusive: 39.8 µM [inhibitor, single point]"
11,Cc1ccc(-c2cc(C(=O)N3CCN(S(=O)(=O)c4ccc(Br)cc4)CC3)[nH]n2)c(C)c1,"inconclusive: 50.1 µM [inhibitor, partial curve, poor fit]"
12,N#Cc1ccccc1Cn1c(=O)n(Cc2ccc(C(=O)NCc3ccco3)cc2)c(=O)c2sccc21,"inconclusive: 0.794 µM [inhibitor, full curve]"
13,CC(=O)c1ccc(S(=O)(=O)N2CCCC(N(C)CCc3ccccc3)C2)cc1 (stereo not drawn),inactive
14,Cc1scc(CN2CCN(c3ccccc3F)CC2)c1C,inactive
15,Cc1ccc(C(=O)N/C(=C\c2ccco2)C(=O)N2CC(C)OC(C)C2)cc1C (stereo not drawn),"inconclusive: 100 µM [inhibitor, partial curve, poor fit]"
16,CCOC(=O)c1nn(-c2ccc(F)cc2)c(=O)c2c(N)scc12,"inconclusive: 44.7 µM [inhibitor, partial curve]"
17,CCOC(=O)N1CCN(C(=O)CN(c2ccccc2OC)S(=O)(=O)c2ccc(OC)cc2)CC1,"inconclusive: 11.2 µM [inhibitor, full curve, poor fit]"
18,CCOC(=O)c1c(C)sc(-c2c(-c3ccccc3)[nH]c3[nH]c(=O)[nH]c(=O)c23)c1O,"inconclusive: 79.4 µM [inhibitor, partial curve, poor fit]"
19,Clc1ccc(Cn2ccc(C3CC3)n2)cc1,"inconclusive: 50.1 µM [inhibitor, partial curve]"
20,O=C(Nc1cccc(-c2nc3ccccc3[nH]2)c1)c1ccc(C(=O)Nc2cccc(-c3nc4ccccc4[nH]3)c2)cc1,"inconclusive: 1 µM [inhibitor, full curve, poor fit]"
21,Cc1cccc(N2CCN(C(=O)c3ccccc3NC(=O)C3=CSCCO3)CC2C)c1 (stereo not drawn),inactive
